Laboratory results from patent US20040235922A1, “Compositions and methods for inducing adipose tissue cell death” (priority 2003, published 2004).

Assay: 21 day oral (diet) treatment of mice: body weight, food intake, feed efficiency, body temperature, body composition by PIXImus densitometry (Example 1)
Format: in vivo
Settings: 21 days, ICR mice
Method: The effects of clenbuterol, a β2-AR agonist, and ractopamine, a β1/β2-AR agonist, on growth, adiposity and adipose tissue apoptosis in male and female mice have been tested by feeding diets containing control, 200 ppm clenbuterol, or 200 or 800 ppm ractopamine. Food intake (FI) was measured daily; body weight (BW) and temperatures (BT) were measured on days 0, 3, 7, 10, 14, 17, and 20. On day 21 mice were sacrificed, body composition was determined using PIXImus densitometry, and muscle and adipose tissues were collected. There were no treatment effects on BT, FI, BW, feed efficiency or body composition. Retroperitoneal (Rp) and epididymal/parametrial (Epi/Par) fat pad masses were reduced in both 800 ppm ractopamine (40±3 and 207±20 mg, respectively) and clenbuterol (35±7 and 211±22 mg) treated mice compared to control (66±8 and 319±30 mg, p<0.05). Brown adipose tissue (BAT) mass was greater (p<0.05) in clenbuterol treated mice compared to other treatments. Adipose tissue apoptosis (% DNA fragmentation) was increased in Epi/Par fat pads in clenbuterol (5.2+1.1%) and 800 ppm ractopamine (4.1±0.8%) treated mice compared to control (1.7+0.4%, p<0.05).
Animals: Five week old male (n=20) and female (n=20) ICR mice (Harlan Research Laboratories, Indianapolis, Ind.) were allowed to acclimate for one week prior to the experiment start date. Animals were housed singly in suspended wire cages and were provided ground rodent chow (ProLab® RMH 2500; Purina Mills, St. Louis, Mo.) and water ad libitum. […]
Materials: Test articles included clenbuterol (Sigma Chemical Company, St. Louis, Mo., item # C5423) and ractopamine hydrochloride—Paylean® 9 (Elanco Animal Health, Indianapolis, Ind.). Clenbuterol is available as a pure product, and ractopamine is readily available as a type A medicated article. […]
Daily Observations: Food intake was measured daily, while body weight and body temperatures were measured on days 0, 3, 7, 10, 14, 17, and 20 at approximately the same time of day (1300 hours) during the treatment period. […]

Row | SMILES | Body Temp (200 ppm in diet) [°C] | Body Temp (800 ppm in diet) [°C]
1 | CC(CCc1ccc(O)cc1)NCC(O)c1ccc(O)cc1 (racemic) [Ractopamine, ractopamine hydrochloride] | 37.0 | 36.8
2 | CC(C)(C)NCC(O)c1cc(Cl)c(N)c(Cl)c1 (stereo not drawn) [Clenbuterol, clenbuterol] | 36.2 | –

Counter-ions that a name gives are not always drawn.
